Test results reported in PubChem BioAssay AID540276 (National Center for Advancing Translational Sciences (NCATS), 2011).
Where “and” joins values, the source holds several entries; their conditions need not be identical. Identical values can stand only once. The whole screen tested about 300,000 compounds, of which about 5,400 (1.8%) were called active. The inconclusive results got no clear call from the source; some entries with a clear call stand among them for comparison. Calls come from the whole dose curve; tested in HEK293 cells. A potency beside an inconclusive call is a rough fit, not a confirmed value.
% is set by controls: 0 for no effect and ±100 for the full control effect; potency is the fitted concentration of half-maximal effect.

Experiment: qHTS for inhibitors of binding or entry into cells for Marburg Virus
Details: Marburg virus pseudotyped entry inhibition, cell reporter; activity change, negative = inhibition: at 37.8 µM (top of the series) unless noted
For `COc1cccc(-c2nc3ccccc3c(=O)o2)c1`, the Potency was inconclusive: 20.6 µM [activator, partial curve, poor fit]. In the case of `O=[N+]([O-])c1ccc(C(O)CN2CCN(c3ccccc3)CC2)cc1` (configuration not stated), the Potency is reported as inconclusive: 8.91 µM [activator, partial curve, poor fit]. For `Cc1cc(F)ccc1NC(=O)C1CCN(C(=O)c2cnn(-c3ccccc3)c2-n2cccc2)CC1`, the “activity change, negative = inhibition” value was inactive: -9% [at 46.1 µM]. In the case of `O=C(CNC(=O)c1ccccc1F)Nc1ccc2c(c1)CCC2`, the Potency is reported as inconclusive: 0.316 µM [activator, full curve]. For `CN(C)CCCNC(=O)/C=C/c1ccc(OCc2c(F)cccc2Cl)cc1`, the Potency was active: 3.98 µM. For `CCC(C)c1ccc(N(C(=O)c2ccco2)C(C(=O)NC2CCCC2)c2cccnc2)cc1` (configuration not stated), the Potency was inconclusive: 12.6 µM [inhibitor, partial curve, poor fit]. With `CC(C)CN(CCCNC(=O)c1cc(-c2cccs2)nc2ccccc12)CC(C)C` the Potency was inconclusive: 12.6 µM [inhibitor, single point]. In the case of `c1ccc(Nc2nc(-c3ccncc3)cs2)nc1`, the Potency is reported as inconclusive: 1 µM [activator, full curve]. With `CCOC(=O)C1CCCN(c2c(C(=O)c3ccc(OCC)cc3)cnc3ccccc23)C1` (configuration not stated) the Potency was inconclusive: 7.08 µM [inhibitor, partial curve, poor fit]. For `Cc1ccc(Cn2c(C)cc3c(c2=O)C(c2cccs2)C(C#N)=C(N)O3)cc1` (configuration not stated), the Potency was inconclusive: 6.51 µM [inhibitor, partial curve, poor fit]. With `Cc1ccc(N=C2N=C(N)c3ccccc32)cc1C` the Potency was inconclusive: 29.1 µM [inhibitor, single point]. For `Cc1cc(C(F)F)n2ncc(C(=O)NCc3ccccc3F)c2n1`, the Potency was inconclusive: 0.447 µM [inhibitor, partial curve, poor fit]. For `Cc1cc(NC(=O)CCS(=O)(=O)c2nc(-c3ccccc3)cc(C(F)(F)F)n2)no1`, the Potency was inconclusive: 35.5 µM [inhibitor, single point]. For `COc1cc(NC(=S)NC(=O)CCc2ccccc2)cc(OC)c1`, the “activity change, negative = inhibition” value was inactive: 23.1%. With `Cc1cc2c(cc1C)C(c1ccccc1OC(C)C)CC(=O)N2` (configuration not stated) the Potency was active: 1 µM. With `Cc1cc(OCC(=O)Nc2c(C(=O)c3ccccc3)oc3ccccc23)cc(C)c1Cl` the Potency was inconclusive: 3.16 µM [activator, single point]. In the case of `COc1ccc(C(C)=O)cc1CSc1ccccn1`, the “activity change, negative = inhibition” value is reported as inactive: 9.62%. For `COc1ccc(NC(=O)CSc2ccc3c(c2)OCCO3)cc1OC`, the “activity change, negative = inhibition” value was inactive: 1.09%. With `COc1ccc(CC(=O)NCCCCc2ccccc2)cc1OC` the Potency was inconclusive: 10 µM [inhibitor, partial curve, poor fit]. For `CCCCN(CC)CCCNC(=S)Nc1ccc2nc3n(c(=O)c2c1)CCCCC3`, the Potency was inconclusive: 29.1 µM [inhibitor, single point]. With `Fc1ccc(N2CCN(Cc3ccc4c(c3)OCO4)CC2)cc1` the “activity change, negative = inhibition” value was inactive: 22.5%. In the case of `COc1cccc(CNC(=O)CCCn2nc(C)c3sc4ccccc4c3c2=O)c1`, the “activity change, negative = inhibition” value is reported as inactive: 9.02% [at 46.1 µM]. With `CN(CCC(=O)Nc1ccc2c(c1)OCO2)Cc1ccccc1` the “activity change, negative = inhibition” value was inactive: -10.1%. For `CCc1ccccc1N(C)C(=O)Cn1cnc2sc(C)c(S(=O)(=O)N3CCC(C)CC3)c2c1=O`, the Potency was inconclusive: 35.5 µM [inhibitor, single point]. For `COc1ccc(C(CNc2ccc(S(=O)(=O)N3CCN(C)CC3)cc2[N+](=O)[O-])N(C)C)cc1` (configuration not stated), the Potency was inconclusive: 35.5 µM [inhibitor, partial curve, poor fit]. For `CN1N=C(C(=O)N2CCN(c3ccc([N+](=O)[O-])cc3)CC2)CCC1=O`, the Potency was inconclusive: 0.562 µM [activator, full curve, poor fit]. In the case of `CCOC(=O)c1cc(OC(=O)c2cc(OC)c(OC)c(OC)c2)n(-c2ccccc2)n1`, the “activity change, negative = inhibition” value is reported as inactive: 11.7% [at 46.1 µM]. With `[O-]/[N+](=C\c1ccncc1)c1ccc(Br)cc1` the Potency was inconclusive: 2.06 µM [activator, full curve, poor fit]. In the case of `O=C(CCCc1ccccc1)NCc1ccc(Cl)cc1`, the “activity change, negative = inhibition” value is reported as inactive: 12.2% [at 46.1 µM]. With `CNC(=S)N1N=C(c2ccc(Br)cc2)CC1c1ccc(N(C)C)cc1` (configuration not stated) the Potency was inconclusive: 35.5 µM [inhibitor, single point]. With `CC1Cc2cc(/C(O)=C3/C(=O)C(=O)N(CCCn4ccnc4)C3c3ccco3)ccc2O1` (configuration not stated) the Potency was inconclusive: 5.62 µM [activator, single point]. In the case of `Cc1ccc(N2CCN(S(=O)(=O)N3CCCCC3)CC2)cc1Cl`, the Potency is reported as inconclusive: 1.12 µM [inhibitor, partial curve, poor fit]. In the case of `Cc1ccc2[nH]c(=O)c(C(c3nnnn3C(C)(C)C)N3CCN(C(=O)c4ccco4)CC3)cc2c1` (configuration not stated), the Potency is reported as inconclusive: 0.206 µM [activator, full curve, poor fit]. In the case of `COCCNc1nc(-c2ccc(OC)cc2)c(-c2ccc(OC)cc2)s1`, the Potency is reported as inconclusive: 13 µM [inhibitor, partial curve]. For `Cn1c(=O)c([N+](=O)[O-])c(N2CCSCC2)c2ccccc21`, the “activity change, negative = inhibition” value was inactive: 3.6%. In the case of `Cc1ccc(-n2ncc(C#N)c2/N=C/N2CCCCCC2)cc1`, the “activity change, negative = inhibition” value is reported as inactive: 10.5%. For `CCNc1nc(C)c2cc(Br)c(=O)n(CC)c2n1`, the Potency was inconclusive: 5.17 µM [inhibitor, full curve, poor fit]. In the case of `Cc1nnc(NC(=O)Cn2nc(C)c3ccccc3c2=O)s1`, the “activity change, negative = inhibition” value is reported as inactive: -8.09% [at 46.1 µM]. With `COc1cc(CO[C@H]2C=C[C@@H](c3ccccc3)O[C@H]2CO)cc(OC)c1` the Potency was inconclusive: 0.0042 µM [inhibitor, full curve, poor fit]. With `Cc1cc(C)n(-c2ccc3cccc(NS(C)(=O)=O)c3n2)n1` the Potency was inconclusive: 6.51 µM [inhibitor, full curve]. For `Cc1ccc(/C=N/NC(=O)CSc2nc3ccccc3o2)cc1`, the Potency was inconclusive: 4.11 µM [activator, partial curve, poor fit]. With `COc1ccc(CC(=O)Nc2nc(-c3cccnc3)cs2)cc1` the “activity change, negative = inhibition” value was inactive: -4.58%. In the case of `CCOc1ccc2nc(SCc3ccc(OC)cc3)sc2c1`, the “activity change, negative = inhibition” value is reported as inactive: 11.5%. For `COc1ccc(OC)c(NC(=O)Cn2c(=O)n(-c3cccc(C)c3)c(=O)c3c2c2cc(C)ccc2n3C)c1`, the Potency was inconclusive: 6.31 µM [activator, single point]. For `CCN(CC)CC(=O)Nc1nn(-c2ccccc2)nc1C(N)=O`, the Potency was inconclusive: 18.3 µM [inhibitor, single point]. In the case of `O=C(Nc1cccc(S(=O)(=O)N2CCOCC2)c1)c1cn(-c2ccccc2)nc1-c1ccccc1`, the Potency is reported as inconclusive: 31.6 µM [inhibitor, single point]. With `N#CC(=C1CCCC1)c1nc(-c2ccc(Cl)cc2)cs1` the Potency was inconclusive: 1.26 µM [inhibitor, single point]. With `O=C(c1cc(-c2cccc(Cl)c2)on1)N1CCCCC1` the Potency was inconclusive: 5.62 µM [activator, partial curve, poor fit]. In the case of `CCOc1ccc(C(=O)Nc2ccc(CN3CCOCC3)cc2)cc1Br`, the “activity change, negative = inhibition” value is reported as inactive: -0.753%. For `CC(C)(C)C(=O)N(Cc1ccccc1)c1ccccn1`, the Potency was inconclusive: 6.31 µM [activator, single point]. With `CN(CCNC(=O)C1CCN(c2ncnc3c2nc2n3CCCCC2)CC1)Cc1ccccc1` the Potency was inconclusive: 11.2 µM [inhibitor, partial curve, poor fit]. For `Cn1c(SCC(=O)N(C2CCCCC2)C2CCCCC2)nnc1-c1cccs1`, the Potency was inconclusive: 10.3 µM [inhibitor, partial curve]. With `CCn1c2ccc(F)cc2c2nc3ccccc3nc21` the “activity change, negative = inhibition” value was inactive: -19.5% [at 46.1 µM]. For `COc1ccc(CCNC(=O)CSc2cccc3cccnc23)cc1OC`, the Potency was inconclusive: 12.6 µM [activator, partial curve, poor fit]. For `CSCCC(NC(=O)c1cccc(S(=O)(=O)N2CCOCC2)c1)C(=O)Nc1cccc(C)c1` (configuration not stated), the Potency was inconclusive: 0.0411 µM [inhibitor, partial curve, poor fit]. In the case of `COc1ccccc1CNCCCCCCNCCCCCCCCNCCCCCCNCc1ccccc1OC`, the Potency is reported as inconclusive: 14.6 µM [inhibitor, partial curve, poor fit] and inconclusive: 10 µM [inhibitor, partial curve, poor fit]. In the case of `CCN1CCN(Cc2cccc(Oc3ccccc3)c2)CC1`, the Potency is reported as inconclusive: 29.1 µM [inhibitor, single point]. In the case of `COc1cccc(-c2noc(COc3ccc(C(C)(C)C)cc3)n2)c1`, the Potency is reported as inconclusive: 35.5 µM [activator, single point]. In the case of `N#Cc1c(-c2ccncc2)cc(-c2ccc(F)cc2)nc1N`, the Potency is reported as inconclusive: 6.31 µM [activator, single point]. With `CC(C)Sc1cc(N2CCCC2)nc(-c2ccccc2Cl)n1` the Potency was inconclusive: 3.55 µM [inhibitor, partial curve, poor fit]. For `COc1ccc(C(=O)CCN2CCCC(C)C2)cc1` (configuration not stated), the “activity change, negative = inhibition” value was inactive: -0.991%. With `Cc1cc(C)n2nc(C(=O)OCC(=O)Nc3ccc(C)c(S(=O)(=O)N4CCOCC4)c3)nc2n1` the Potency was inconclusive: 0.316 µM [activator, full curve, poor fit]. In the case of `COc1cc(C2C(C#N)=C(N)N(c3cccnc3)C3=C2C(=O)CC(C)(C)C3)ccc1O` (configuration not stated), the “activity change, negative = inhibition” value is reported as inactive: 10.4%. For `CCN(CC(=O)Nc1c(F)cccc1F)C(=O)/C=C/c1ccc2ccccc2n1`, the Potency was inconclusive: 1 µM [activator, full curve]. For `O=C(COC(=O)/C=C/c1cccs1)Nc1nc(-c2ccccc2)cs1`, the Potency was inconclusive: 35.5 µM [inhibitor, single point]. With `Cc1cc(C)nc(NC(=O)CSc2nc3ccccc3s2)n1` the “activity change, negative = inhibition” value was inactive: -25.1%. With `CC(=O)Cc1cc(O)c2ccccc2c1OC(=O)c1ccccc1` the “activity change, negative = inhibition” value was inactive: -19.2% [at 46.1 µM].
